Source: publication PMC11603163
These are yes or no findings as the source states them, for the method shown. Binding seen in cells or lysates may run through a third protein. A yes stands for co-enrichment or nearness to the bait. Other partners may have been found. For some assays here: A no says only that the protein was not detected with the bait. For some assays here: Tags and fused reporters may be left off the sequences shown.

By UniProt entry, the sequences of proteins in these tests, tags left out.
UniProt Q9LQ02: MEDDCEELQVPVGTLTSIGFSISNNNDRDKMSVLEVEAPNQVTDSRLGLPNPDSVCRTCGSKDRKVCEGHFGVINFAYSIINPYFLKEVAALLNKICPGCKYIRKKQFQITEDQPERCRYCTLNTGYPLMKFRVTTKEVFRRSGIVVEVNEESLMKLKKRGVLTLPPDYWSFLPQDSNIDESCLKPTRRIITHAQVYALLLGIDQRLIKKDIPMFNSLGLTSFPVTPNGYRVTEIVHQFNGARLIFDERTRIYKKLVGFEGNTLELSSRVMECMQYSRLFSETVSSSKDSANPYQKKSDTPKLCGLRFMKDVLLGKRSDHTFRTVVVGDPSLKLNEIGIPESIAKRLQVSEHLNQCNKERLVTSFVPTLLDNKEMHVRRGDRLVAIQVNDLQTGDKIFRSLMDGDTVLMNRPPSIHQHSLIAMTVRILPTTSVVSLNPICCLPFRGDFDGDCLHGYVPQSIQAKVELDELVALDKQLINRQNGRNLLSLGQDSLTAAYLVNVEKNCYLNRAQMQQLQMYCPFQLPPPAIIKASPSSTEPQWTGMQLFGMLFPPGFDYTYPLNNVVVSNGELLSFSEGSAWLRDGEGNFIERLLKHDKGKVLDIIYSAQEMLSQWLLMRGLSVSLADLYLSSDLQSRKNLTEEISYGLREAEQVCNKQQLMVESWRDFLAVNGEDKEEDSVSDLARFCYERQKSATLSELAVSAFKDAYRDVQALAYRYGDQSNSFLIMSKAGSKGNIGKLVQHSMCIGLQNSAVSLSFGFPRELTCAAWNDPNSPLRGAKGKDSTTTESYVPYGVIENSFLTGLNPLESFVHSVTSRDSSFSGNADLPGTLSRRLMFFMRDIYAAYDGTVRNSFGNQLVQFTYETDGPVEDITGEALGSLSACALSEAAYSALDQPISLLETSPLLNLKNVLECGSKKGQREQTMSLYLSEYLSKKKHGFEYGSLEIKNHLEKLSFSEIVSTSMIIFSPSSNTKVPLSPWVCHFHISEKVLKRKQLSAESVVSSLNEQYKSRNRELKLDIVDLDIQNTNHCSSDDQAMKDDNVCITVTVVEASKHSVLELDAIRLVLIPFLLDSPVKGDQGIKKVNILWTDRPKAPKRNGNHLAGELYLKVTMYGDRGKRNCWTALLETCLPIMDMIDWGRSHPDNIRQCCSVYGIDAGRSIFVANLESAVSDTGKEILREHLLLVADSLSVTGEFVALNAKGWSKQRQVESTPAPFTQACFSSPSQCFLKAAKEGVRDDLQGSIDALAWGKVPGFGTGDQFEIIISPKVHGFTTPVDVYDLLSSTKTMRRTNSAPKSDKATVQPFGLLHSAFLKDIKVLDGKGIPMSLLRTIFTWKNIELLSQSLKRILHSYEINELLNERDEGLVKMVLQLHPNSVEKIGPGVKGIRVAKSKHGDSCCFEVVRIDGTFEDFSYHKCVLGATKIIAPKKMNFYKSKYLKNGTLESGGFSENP

T1: 3xF-tagged CLSY3 (Arabidopsis) (UniProt F4I8S3)
T1 sequence: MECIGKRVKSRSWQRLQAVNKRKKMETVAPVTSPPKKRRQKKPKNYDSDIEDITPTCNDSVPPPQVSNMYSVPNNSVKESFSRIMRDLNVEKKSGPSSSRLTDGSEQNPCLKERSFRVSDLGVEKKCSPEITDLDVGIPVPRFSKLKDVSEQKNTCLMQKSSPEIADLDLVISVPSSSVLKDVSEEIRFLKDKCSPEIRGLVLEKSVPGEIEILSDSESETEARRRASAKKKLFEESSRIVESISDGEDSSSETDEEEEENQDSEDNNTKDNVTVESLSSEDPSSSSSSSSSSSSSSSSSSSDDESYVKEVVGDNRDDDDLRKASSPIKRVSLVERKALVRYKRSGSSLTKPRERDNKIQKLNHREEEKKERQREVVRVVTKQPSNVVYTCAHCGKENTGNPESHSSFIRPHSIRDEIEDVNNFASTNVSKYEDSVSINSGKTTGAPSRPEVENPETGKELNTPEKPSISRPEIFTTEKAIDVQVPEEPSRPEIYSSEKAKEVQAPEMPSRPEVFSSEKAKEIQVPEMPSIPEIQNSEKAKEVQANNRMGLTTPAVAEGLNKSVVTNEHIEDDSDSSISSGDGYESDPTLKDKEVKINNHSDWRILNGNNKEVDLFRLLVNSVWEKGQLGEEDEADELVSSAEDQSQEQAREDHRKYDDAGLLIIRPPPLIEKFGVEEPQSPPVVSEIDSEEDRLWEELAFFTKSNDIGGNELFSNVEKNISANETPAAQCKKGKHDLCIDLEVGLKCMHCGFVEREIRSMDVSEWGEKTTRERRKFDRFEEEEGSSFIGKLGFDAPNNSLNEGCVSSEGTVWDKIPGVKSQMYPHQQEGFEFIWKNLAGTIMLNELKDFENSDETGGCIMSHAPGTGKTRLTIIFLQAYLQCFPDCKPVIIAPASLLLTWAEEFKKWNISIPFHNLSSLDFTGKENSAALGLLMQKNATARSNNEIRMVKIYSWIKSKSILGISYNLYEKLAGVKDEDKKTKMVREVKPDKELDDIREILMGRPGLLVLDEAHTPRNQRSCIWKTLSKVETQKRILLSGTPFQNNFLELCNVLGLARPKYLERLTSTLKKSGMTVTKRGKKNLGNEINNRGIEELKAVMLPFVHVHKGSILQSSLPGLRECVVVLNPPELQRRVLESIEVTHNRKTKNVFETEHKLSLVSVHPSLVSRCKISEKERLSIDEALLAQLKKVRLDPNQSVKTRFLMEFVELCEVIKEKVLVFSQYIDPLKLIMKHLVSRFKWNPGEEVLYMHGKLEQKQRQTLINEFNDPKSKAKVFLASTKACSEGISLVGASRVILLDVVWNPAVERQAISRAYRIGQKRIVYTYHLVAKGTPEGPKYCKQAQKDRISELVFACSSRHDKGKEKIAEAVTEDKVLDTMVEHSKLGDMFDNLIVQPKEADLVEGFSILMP

T2: 3xHA-CLSY1 (Arabidopsis) (UniProt Q9M297)
T2 sequence: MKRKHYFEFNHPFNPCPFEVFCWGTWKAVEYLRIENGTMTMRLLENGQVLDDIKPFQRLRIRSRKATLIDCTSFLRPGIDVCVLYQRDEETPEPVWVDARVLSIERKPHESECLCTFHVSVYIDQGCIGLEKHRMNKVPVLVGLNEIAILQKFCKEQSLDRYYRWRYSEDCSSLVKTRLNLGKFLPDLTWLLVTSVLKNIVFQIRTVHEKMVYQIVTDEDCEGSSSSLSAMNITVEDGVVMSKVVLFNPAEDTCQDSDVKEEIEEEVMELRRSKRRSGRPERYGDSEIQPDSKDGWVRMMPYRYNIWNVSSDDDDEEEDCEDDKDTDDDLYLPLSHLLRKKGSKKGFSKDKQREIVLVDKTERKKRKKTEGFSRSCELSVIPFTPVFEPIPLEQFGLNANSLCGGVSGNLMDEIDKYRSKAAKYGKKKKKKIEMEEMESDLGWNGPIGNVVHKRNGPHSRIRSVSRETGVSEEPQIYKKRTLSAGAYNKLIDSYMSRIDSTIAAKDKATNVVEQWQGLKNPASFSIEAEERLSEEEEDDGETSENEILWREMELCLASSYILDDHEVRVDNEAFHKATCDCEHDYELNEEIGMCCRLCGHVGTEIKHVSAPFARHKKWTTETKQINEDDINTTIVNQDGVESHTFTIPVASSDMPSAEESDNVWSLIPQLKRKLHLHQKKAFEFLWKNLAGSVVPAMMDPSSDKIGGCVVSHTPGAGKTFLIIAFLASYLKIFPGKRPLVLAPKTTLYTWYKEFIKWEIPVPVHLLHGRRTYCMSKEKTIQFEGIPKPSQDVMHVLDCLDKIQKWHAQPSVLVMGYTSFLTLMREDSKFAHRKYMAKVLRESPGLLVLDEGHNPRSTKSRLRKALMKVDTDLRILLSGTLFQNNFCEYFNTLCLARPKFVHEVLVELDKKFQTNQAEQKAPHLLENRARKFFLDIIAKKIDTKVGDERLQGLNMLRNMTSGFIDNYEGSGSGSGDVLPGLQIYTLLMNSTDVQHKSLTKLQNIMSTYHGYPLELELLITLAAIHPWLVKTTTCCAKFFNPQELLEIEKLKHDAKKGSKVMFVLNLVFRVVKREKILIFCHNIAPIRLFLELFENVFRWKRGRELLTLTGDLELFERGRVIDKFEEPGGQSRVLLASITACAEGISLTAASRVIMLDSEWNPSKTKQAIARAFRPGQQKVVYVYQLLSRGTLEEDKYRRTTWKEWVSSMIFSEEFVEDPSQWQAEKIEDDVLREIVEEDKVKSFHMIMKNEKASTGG


Key:
[1] = target: T1, 3xF-tagged CLSY3 (Arabidopsis); test: affinity purification with mass spectrometry; anti-Flag M2 magnetic beads on 10 g flowers of 3xF-tagged CLSY lines in their clsy mutant backgrounds; elution with 3x-FLAG peptide; compared to non-transgenic wild-type controls
[2] = target: NRPD1-3xFWT (Arabidopsis) (UniProt Q9LQ02); test: affinity purification with mass spectrometry; anti-FLAG magnetic beads (uMACS DYKDDDK kit) on flower extracts of nrpd1-3 T2 lines with NRPD1-3xF WT, AAA-YPMF or CYC-AAAA; three lines, two replicates each; LC-MS/MS spectral counts
[3] = target: T2, 3xHA-CLSY1 (Arabidopsis); test: affinity purification with mass spectrometry; anti-HA IP (uMACS HA kit) of 3xHA-CLSY1 from flowers of nrpd1-3 lines with NRPD1-3xF WT or AAA-YPMF; LC-MS/MS

binding [1] | binding [2] | binding [3] | Molecule
binds | binds |  | RNA-… RNA POLYMERASE 2 (RDR2) (from UniProt O82504 1-1133)
no binding | binds | no binding | CLASSY 2 (CLSY2) (protein, UniProt F4K493 1-1261) MKKRGFYNLKHPFDPCPFEFFCSGTWKPVEYMRIEDGMMTIRLLENGYVLEDIRPFQRLRLRSRKAALSDCICFLRPDIDVCVLYRIHEDDLEPVWVDARIVSIERKPHESECSCKINVRIYIDQGCIGSEKQRINRDSVVIGLNQISILQKFYKEQSTDQFYRWRFSEDCTSLMKTRLSLGKFLPDLSWLTVTSTLKSIVFQIRTVQTKMVYQIVTDEEGSSSTLSSMNITLEDGVSLSKVVKFNPADILDDSQDLEIKQETDYYQEEDEVVELRRSKRRNVRPDIYTGCDYEPDTIDGWVRMMPYQFGKCAVNVESDEDEDDNNEDGDTNDDLYIPLSRLFIKKKKTNSREAKPKSRKGEIVVIDKRRVHGFGRKERKSELSVIPFTPVFEPIPLEQFGLNANSFGGGGSFSRSQYFDETEKYRSKGMKYGKKMTEMEEMMEADLCWKGPNQVKSFQKRTSRSSRSVAPKTEDSDEPRVYKKVTLSAGAYNKLIDTYMNNIESTIAAKDEPTSVVDQWEELKKTNFAFKLHGDMEKNLSEDGEGETSENEMLWREMELCLASSYILDDNEVRVDNEAFEKARSGCEHDYRLEEEIGMCCRLCGHVGSEIKDVSAPFAEHKKWTIETKHIEEDDIKTKLSHKEAQTKDFSMISDSSEMLAAEESDNVWALIPKLKRKLHVHQRRAFEFLWRNVAGSVEPSLMDPTSGNIGGCVISHSPGAGKTFLIIAFLTSYLKLFPGKRPLVLAPKTTLYTWYKEFIKWEIPVPVHLIHGRRTYCTFKQNKTVQFNGVPKPSRDVMHVLDCLEKIQKWHAHPSVLVMGYTSFTTLMREDSKFAHRKYMAKVLRESPGLLVLDEGHNPRSTKSRLRKALMKVGTDLRILLSGTLFQNNFCEYFNTLCLARPKFIHEVLMELDQKFKTNHGVNKAPHLLENRARKLFLDIIAKKIDASVGDERLQGLNMLKNMTNGFIDNYEGSGSGSGDALPGLQIYTLVMNSTDIQHKILTKLQDVIKTYFGYPLEVELQITLAAIHPWLVTSSNCCTKFFNPQELSEIGKLKHDAKKGSKVMFVLNLIFRVVKREKILIFCHNIAPIRMFTELFENIFRWQRGREILTLTGDLELFERGRVIDKFEEPGNPSRVLLASITACAEGISLTAASRVIMLDSEWNPSKTKQAIARAFRPGQQKVVYVYQLLSRGTLEEDKYRRTTWKEWVSCMIFSEEFVADPSLWQAEKIEDDILREIVGEDKVKSFHMIMKNEKASTG
no binding | binds | binds | SAWADEE HOMEODOMAIN HOMOLOG 1 (SHH1) (protein, UniProt Q9XI47 1-258) MAASDDSSHYFTEFTLSEIVDMENLYKELGDQSLHKDFCQTVASTFSCSVNRNGKSSITWKQVQIWFQEKLKHQSQPKSKTLPSPPLQIHDLSNPSSYASNASNATFVGNSTFVQTRKGKASDLADLAFEAKSARDYAWYDVSSFLTYRVLRTGELEVRVRFSGFDNRHDEWVNVKTSVRERSIPVEPSECGRVNVGDLLLCFQEREDQALYCDGHVLNIKRGIHDHARCNCVFLVRYELDNTEESLGLERICRRPEE
